This assay concerns the target Rv3167c, M-PFC fusion proteins (from pUAB300 and pUAB400) (Mycobacterium tuberculosis) (UniProt O53317). The assay can be described thus: split reporter.

Results are given in words; binding and its absence hold for the method and conditions named. In cells and extracts the contact can be indirect. Some entries that bind do so weakly or less than the wild type. Tags and fused reporters may be left off the sequences shown.

B1: Rv3167c, M-PFC fusion proteins (from pUAB300 and pUAB400) (protein, UniProt O53317 1-208)
chain: MKADLPSLDKAPGAGRPRDPRIDSAILSATAELLVQIGYSNLSLAAVAERAGTTKSALYRRWSSKAELVHEAAFPAAPTALQAAAGDIAADIRMMIAATRDVFTTPVVRAALPGLVADMTADAELNARVLARFADLFAAVRMRLREAVDRGEAHPDVDPDRLIELIGGATMLRMLLYPDDMLDDAWVDQTTAIVVRGVHRAAPGGSVV
Take B1: the binding entry is given as “binds”.
